IC50 data for one compound are collected here from BindingDB's records for doi:10.1074/jbc.M500805200 (Chinese Academy of Sciences, 2005).

The target of the assay is T1, Casein kinase I isoform alpha (Rattus norvegicus, UniProt P97633).
T1 sequence (P97633 whole entry): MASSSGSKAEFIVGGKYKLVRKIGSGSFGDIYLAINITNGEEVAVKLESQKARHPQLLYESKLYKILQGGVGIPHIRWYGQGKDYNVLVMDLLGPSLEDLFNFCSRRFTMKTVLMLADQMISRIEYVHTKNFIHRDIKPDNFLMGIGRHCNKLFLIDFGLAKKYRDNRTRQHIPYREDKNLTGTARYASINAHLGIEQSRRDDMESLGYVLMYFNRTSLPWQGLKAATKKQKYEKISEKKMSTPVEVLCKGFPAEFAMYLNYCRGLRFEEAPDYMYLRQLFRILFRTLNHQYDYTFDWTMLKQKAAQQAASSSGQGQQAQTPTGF
The note with it: pH 7.2; 30 °C.

As to `CC[C@H](CO)Nc1nc(NCc2ccccc2)c2ncn(C(C)C)c2n1` [2,6,9-Trisubstituted purine deriv. 28], the midpoint of inhibition, the IC50, lay at 100 µM.
